Laboratory results: PubChem BioAssay AID504764 (Drosophila RNAi Screening Center, 2011)
The screen tested about 22,000 reagents; this is a random part of those with a known target gene and a result. Over the whole deposit, 403 (1.9%) were called active. 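Unnormalised raw counts per well; ratio z-scores behind the hit calls and whether each hit raises or lowers signal are not deposited.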 Names joined by + are all predicted targets of the reagent. Reagent sequences are not shown. Not given: the amount of reagent.

Purpose: 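Knock-downs that raise or lower a Notch target reporter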 (primary screen)
System: Drosophila Kc167 cells
Reagents: long dsRNA against Drosophila genes
Duration: about 5 days (4 days dsRNA, then 24 h after transfection)
Treatment: transfection of constitutively active membrane-tethered Notch lacking the extracellular domain, read 24 h later
Detection: 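Firefly luciferase from an E(spl)m3 reporter with active Notch, plus control-promoter and uninduced reporter wells for normalisation; unnormalised counts, duplicate wells a and b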
Reading the numbers: induced reporter light, run 1, well a and induced reporter light, run 1, well b: higher = more light from the Notch target reporter with active Notch; control promoter light, run 1, well a and control promoter light, run 1, well b: higher = more light from the viral control promoter (cell number, transfection, viability); uninduced reporter light, run 1, well a: higher = more light from the Notch target reporter without active Notch
Rule for the call: 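Hit if the duplicate-averaged log2 ratio of induced to control-promoter light gives a plate-wise z beyond ±2, or induced to uninduced beyond ±1.8; weak-control or discordant-duplicate wells dropped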
Calls: active = modifier hit (raised or lowered Notch signal); inactive = not a hit

gene knocked down	amplicon	induced reporter light, run 1, well a	induced reporter light, run 1, well b	control promoter light, run 1, well a	control promoter light, run 1, well b	uninduced reporter light, run 1, well a	Call
Pdfr	DRSC18614	1.11e5	1.14e5	1.73e5	1.70e5	9495	inactive
anne	DRSC17103	52165	63210	89780	72570	6280	inactive
Tsp42Ed	DRSC05940	2.40e5	1.83e5	2.93e5	2.91e5	15270	inactive
O-fut1	DRSC06138	1.51e5	1.80e5	1.68e5	1.72e5	14785	inactive
Cyp6g1	DRSC07386	1.97e5	1.47e5	1.71e5	1.42e5	12660	inactive
CG14856	DRSC14980	1.92e5	1.94e5	2.04e5	1.89e5	13840	inactive
CG31997	DRSC17105	49865	69180	1.03e5	69060	6545	inactive
vimar	DRSC05026	1.95e5	1.48e5	1.56e5	1.65e5	10385	inactive
rb	DRSC18826	2.20e5	2.44e5	3.64e5	3.55e5	16778	inactive
Desat1	DRSC16668	67260	72670	51770	41740	4170	inactive
CG13510	DRSC04152	1.93e5	1.86e5	1.51e5	1.67e5	13550	inactive
smid	DRSC11398	1.45e5	1.72e5	1.54e5	1.53e5	7355	inactive
CG13720	DRSC08329	88120	1.16e5	1.67e5	1.95e5	8000	inactive
zetaCOP	DRSC11412	19280	16150	22010	20282	870	inactive
CG40053 (retired record)	DRSC20833	1.90e5	1.90e5	2.76e5	3.18e5	17630	inactive

Sorted by “induced reporter light, run 1, well b” (lowest first): some entries from above.
gene knocked down	amplicon	induced reporter light, run 1, well a	induced reporter light, run 1, well b	control promoter light, run 1, well a	control promoter light, run 1, well b	uninduced reporter light, run 1, well a	Call
zetaCOP	DRSC11412	19280	16150	22010	20282	870	inactive
CG13720	DRSC08329	88120	1.16e5	1.67e5	1.95e5	8000	inactive
CG40053 (retired record)	DRSC20833	1.90e5	1.90e5	2.76e5	3.18e5	17630	inactive

The listing continues.
gene knocked down	amplicon	induced reporter light, run 1, well a	induced reporter light, run 1, well b	control promoter light, run 1, well a	control promoter light, run 1, well b	uninduced reporter light, run 1, well a	Call
sl	DRSC20377	1.71e5	1.32e5	2.44e5	2.35e5	11170	inactive
wda	DRSC15579	1.23e5	1.50e5	1.81e5	1.92e5	11920	inactive
CG13877 + pyx	DRSC08347	1.14e5	1.07e5	2.47e5	1.95e5	7428	inactive
Mtap	DRSC06890	77840	87855	1.15e5	1.31e5	7775	inactive
CG1416	DRSC03706	2.29e5	2.18e5	1.70e5	1.93e5	15382	inactive
Pxt	DRSC17040	2.28e5	1.39e5	1.62e5	1.63e5	10405	inactive
La	DRSC03358	18130	18755	28065	18925	1755	inactive
Ipk2	DRSC00357	1.24e5	86230	86685	40685	7390	inactive
MAGE	DRSC12504	86520	1.07e5	1.09e5	1.12e5	11200	inactive
sac	DRSC12237	35330	30505	32420	30040	2780	inactive
mRpL37	DRSC16062	1.37e5	1.51e5	1.88e5	1.33e5	15650	inactive
CG33342	DRSC13662	1.66e5	1.62e5	1.62e5	1.51e5	14405	inactive
Cpr47Eg	DRSC07330	88800	99945	1.33e5	1.24e5	9955	inactive
AttA	DRSC05926	2.55e5	2.02e5	2.50e5	2.44e5	16845	inactive
Kmn1	DRSC19666	1.42e5	1.36e5	2.58e5	2.00e5	8800	inactive
CG14314	DRSC14793	1.62e5	1.52e5	1.88e5	1.99e5	11105	inactive
Rnmt	DRSC03558	1.51e5	1.62e5	1.68e5	2.07e5	12590	inactive
Cht7	DRSC08538	1.74e5	1.36e5	1.76e5	65550	15140	inactive
CG32249	DRSC08101	2.28e5	2.25e5	1.88e5	1.77e5	16465	inactive
CG32249	DRSC08177	2.21e5	1.96e5	2.67e5	2.01e5	12080	inactive
